According to the supplement of paper PMC10849652:
Some of the results follow.

By UniProt entry, the sequences of proteins in these tests, tags left out. Where a name states a change or a piece, a line headed by the entry shows the natural chain unless it says otherwise.
UniProt Q8NI36: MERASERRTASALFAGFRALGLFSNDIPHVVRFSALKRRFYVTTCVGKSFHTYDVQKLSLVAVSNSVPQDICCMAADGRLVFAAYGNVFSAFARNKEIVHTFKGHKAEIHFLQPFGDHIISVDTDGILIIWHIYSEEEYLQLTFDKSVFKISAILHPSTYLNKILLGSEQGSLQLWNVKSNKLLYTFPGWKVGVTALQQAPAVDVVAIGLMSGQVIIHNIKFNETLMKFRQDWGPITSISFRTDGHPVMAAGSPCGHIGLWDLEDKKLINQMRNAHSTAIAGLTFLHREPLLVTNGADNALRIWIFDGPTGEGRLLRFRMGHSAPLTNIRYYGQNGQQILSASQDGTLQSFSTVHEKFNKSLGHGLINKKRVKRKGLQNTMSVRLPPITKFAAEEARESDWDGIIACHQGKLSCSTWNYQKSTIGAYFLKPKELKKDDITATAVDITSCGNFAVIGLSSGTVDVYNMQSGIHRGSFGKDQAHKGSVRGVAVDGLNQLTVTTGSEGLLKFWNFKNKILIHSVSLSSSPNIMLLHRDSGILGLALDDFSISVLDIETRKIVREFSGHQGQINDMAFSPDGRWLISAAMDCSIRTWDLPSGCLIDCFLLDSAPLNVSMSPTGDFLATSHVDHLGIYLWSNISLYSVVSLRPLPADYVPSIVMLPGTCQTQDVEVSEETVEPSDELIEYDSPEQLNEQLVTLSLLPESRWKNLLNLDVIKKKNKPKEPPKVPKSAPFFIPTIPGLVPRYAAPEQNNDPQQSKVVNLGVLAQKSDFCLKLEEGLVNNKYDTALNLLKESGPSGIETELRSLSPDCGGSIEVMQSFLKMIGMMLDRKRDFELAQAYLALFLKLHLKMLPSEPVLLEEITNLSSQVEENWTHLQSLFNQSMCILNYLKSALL
UniProt Q5JSH3: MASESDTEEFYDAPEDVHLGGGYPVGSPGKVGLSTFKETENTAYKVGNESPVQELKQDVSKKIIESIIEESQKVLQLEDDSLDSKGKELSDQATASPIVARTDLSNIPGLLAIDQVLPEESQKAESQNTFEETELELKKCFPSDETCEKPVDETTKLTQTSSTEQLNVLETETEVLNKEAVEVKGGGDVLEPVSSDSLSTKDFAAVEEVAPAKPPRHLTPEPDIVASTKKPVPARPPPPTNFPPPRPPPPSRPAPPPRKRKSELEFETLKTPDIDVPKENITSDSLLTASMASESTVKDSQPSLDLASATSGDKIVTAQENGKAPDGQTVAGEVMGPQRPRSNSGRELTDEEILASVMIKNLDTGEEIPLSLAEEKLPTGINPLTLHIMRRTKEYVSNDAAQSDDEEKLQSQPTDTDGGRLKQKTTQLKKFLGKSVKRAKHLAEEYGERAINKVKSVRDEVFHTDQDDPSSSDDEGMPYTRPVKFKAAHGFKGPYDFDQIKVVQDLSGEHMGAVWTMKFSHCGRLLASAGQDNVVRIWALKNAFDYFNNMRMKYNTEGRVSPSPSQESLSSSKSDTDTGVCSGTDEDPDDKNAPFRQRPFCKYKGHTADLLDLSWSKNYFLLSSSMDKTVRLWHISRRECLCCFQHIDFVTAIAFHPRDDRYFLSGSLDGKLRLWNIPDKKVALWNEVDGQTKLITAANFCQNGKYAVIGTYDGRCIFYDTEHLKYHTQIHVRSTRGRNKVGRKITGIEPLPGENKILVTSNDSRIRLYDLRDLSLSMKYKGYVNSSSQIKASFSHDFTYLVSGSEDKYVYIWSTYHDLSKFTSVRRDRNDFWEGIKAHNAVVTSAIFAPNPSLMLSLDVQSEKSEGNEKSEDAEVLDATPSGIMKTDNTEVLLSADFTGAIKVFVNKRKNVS
UniProt Q9H1Z4: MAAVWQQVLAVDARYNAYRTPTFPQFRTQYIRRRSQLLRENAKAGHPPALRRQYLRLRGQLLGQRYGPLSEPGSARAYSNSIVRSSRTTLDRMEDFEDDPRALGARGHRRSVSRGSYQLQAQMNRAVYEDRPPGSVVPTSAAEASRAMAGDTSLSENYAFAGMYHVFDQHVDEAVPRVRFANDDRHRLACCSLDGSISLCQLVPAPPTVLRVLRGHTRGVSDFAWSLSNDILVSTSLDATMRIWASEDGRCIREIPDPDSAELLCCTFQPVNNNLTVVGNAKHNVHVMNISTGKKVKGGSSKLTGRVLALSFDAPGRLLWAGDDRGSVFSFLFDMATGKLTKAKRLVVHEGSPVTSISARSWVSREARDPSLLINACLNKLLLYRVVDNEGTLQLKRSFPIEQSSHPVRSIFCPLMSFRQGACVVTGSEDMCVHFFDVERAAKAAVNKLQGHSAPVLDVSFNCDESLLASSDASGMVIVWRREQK
UniProt Q8IWB7: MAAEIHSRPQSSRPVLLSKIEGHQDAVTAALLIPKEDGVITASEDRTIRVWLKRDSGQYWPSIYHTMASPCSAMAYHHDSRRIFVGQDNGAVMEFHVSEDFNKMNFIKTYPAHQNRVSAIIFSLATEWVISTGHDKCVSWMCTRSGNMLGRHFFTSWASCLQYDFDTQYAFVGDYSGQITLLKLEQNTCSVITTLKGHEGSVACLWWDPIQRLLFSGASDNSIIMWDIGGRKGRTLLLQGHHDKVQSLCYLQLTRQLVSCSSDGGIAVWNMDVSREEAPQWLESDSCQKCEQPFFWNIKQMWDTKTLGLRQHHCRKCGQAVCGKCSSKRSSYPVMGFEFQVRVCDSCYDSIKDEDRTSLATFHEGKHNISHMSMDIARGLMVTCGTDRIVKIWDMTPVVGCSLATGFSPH
UniProt Q5MNZ6: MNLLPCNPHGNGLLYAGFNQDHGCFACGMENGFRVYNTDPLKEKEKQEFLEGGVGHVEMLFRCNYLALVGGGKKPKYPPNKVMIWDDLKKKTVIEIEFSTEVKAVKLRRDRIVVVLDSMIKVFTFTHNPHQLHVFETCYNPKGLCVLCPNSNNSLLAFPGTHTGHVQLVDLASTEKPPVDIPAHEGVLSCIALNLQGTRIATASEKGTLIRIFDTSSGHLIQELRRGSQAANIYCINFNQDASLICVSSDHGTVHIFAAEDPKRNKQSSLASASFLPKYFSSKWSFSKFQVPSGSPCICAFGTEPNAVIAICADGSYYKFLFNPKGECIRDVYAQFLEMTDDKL
UniProt Q96FK6: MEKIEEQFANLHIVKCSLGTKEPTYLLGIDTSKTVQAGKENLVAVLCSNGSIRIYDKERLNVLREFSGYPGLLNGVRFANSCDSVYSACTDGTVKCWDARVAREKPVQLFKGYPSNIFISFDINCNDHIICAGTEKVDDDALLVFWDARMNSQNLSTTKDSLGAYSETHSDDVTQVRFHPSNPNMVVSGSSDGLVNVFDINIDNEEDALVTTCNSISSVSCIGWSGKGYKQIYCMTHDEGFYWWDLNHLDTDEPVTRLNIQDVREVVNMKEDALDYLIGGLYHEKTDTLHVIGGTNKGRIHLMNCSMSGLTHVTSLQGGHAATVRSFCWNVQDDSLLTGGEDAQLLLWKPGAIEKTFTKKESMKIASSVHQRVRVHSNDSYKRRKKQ
UniProt Q8TBZ3: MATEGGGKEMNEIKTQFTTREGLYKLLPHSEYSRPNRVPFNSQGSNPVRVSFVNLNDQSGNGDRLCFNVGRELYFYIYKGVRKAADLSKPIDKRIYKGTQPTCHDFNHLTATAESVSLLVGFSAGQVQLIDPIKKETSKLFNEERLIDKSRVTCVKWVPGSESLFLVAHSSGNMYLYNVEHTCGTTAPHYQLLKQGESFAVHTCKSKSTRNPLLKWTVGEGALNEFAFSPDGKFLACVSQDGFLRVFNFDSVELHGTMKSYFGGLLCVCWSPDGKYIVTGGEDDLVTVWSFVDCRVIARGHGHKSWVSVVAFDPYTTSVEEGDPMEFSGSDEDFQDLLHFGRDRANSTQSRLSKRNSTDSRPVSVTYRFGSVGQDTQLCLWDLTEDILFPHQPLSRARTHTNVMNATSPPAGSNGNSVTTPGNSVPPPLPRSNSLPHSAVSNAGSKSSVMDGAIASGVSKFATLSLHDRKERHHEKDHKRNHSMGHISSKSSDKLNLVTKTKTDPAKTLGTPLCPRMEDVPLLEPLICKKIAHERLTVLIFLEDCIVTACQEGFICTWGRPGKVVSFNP
UniProt A6NGB9: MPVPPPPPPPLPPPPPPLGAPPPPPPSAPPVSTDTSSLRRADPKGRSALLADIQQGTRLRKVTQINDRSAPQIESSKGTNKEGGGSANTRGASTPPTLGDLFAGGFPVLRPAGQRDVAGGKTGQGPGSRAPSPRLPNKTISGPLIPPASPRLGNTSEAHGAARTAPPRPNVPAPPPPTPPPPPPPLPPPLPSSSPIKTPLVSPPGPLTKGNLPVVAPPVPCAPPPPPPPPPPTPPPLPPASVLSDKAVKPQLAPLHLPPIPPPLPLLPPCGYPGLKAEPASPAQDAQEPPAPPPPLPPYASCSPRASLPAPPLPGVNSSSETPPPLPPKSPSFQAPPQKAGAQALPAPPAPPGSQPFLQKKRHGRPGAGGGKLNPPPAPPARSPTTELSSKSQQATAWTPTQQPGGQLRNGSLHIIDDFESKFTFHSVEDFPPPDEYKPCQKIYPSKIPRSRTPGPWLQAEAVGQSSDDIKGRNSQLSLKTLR
UniProt Q9Y484: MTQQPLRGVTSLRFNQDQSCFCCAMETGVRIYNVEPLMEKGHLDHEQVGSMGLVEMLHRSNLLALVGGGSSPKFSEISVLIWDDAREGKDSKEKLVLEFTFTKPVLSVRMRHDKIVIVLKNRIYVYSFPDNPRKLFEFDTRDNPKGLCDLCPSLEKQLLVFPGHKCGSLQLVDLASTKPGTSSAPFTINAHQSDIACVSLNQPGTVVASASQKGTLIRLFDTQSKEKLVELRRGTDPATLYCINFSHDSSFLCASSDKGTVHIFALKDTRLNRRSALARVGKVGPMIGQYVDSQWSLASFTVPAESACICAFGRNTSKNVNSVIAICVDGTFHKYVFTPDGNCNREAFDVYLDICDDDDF
UniProt O75351, whole entry, looked up: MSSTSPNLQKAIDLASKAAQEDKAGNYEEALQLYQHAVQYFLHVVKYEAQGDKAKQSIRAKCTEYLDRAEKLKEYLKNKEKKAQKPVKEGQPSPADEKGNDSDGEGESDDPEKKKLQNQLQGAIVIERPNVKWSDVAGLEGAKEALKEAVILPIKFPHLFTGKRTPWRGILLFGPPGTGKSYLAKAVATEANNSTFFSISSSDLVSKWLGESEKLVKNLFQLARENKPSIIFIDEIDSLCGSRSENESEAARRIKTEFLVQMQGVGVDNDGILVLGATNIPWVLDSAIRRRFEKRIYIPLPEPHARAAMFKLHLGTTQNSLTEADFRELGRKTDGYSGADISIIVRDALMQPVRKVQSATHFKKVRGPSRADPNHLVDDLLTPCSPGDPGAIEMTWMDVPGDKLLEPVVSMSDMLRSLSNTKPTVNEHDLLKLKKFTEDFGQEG
UniProt Q14119: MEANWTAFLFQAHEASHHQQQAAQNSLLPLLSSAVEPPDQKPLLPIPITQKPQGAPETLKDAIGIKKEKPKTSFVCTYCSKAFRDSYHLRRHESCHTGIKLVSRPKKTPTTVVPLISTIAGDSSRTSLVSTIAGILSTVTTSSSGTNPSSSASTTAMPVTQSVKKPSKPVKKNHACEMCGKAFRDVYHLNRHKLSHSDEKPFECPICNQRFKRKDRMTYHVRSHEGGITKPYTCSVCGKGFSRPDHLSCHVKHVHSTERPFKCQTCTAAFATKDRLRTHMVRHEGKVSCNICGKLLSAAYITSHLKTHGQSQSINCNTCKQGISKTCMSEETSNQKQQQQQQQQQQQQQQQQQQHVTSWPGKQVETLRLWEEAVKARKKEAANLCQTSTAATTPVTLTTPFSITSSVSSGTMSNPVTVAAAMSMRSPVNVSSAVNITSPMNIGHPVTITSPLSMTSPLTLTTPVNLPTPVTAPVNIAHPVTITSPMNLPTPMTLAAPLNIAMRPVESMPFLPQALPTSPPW
UniProt Q96EX3: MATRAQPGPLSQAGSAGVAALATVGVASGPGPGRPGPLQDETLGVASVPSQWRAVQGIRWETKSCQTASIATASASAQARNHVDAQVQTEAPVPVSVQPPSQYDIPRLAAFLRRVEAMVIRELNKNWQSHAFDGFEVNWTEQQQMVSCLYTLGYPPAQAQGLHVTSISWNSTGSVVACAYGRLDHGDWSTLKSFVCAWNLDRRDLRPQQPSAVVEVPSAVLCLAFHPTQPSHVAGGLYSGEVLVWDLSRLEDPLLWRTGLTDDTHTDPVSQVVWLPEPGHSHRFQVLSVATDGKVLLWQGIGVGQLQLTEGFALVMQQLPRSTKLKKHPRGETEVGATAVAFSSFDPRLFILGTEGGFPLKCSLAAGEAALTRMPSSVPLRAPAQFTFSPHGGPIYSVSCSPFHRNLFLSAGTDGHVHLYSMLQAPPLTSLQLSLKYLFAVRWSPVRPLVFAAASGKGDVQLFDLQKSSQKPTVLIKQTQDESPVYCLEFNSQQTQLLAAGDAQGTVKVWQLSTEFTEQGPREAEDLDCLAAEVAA

What follows are targets tested with Cc1ccc(C(=O)N(CCCN)[C@@H](c2nc3cc(Cl)ccc3c(=O)n2Cc2ccccc2)C(C)C)cc1 [ispinesib] (assay: log2 fold change, soluble protein after heating vs DMSO (PISA); higher = thermal stabilisation; K562 cells, 10 uM, 30 min; active = over 0.2 and 3.5 SD of the protein, either way, in both replicates (recomputed)).
How it was run: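 Quantification of soluble protein used TMTpro 16plex LC-MS/MS, with channel sums equalised. Samples were the supernatant after 21,000xg for 90 min of pooled aliquots from K562 cells (2×10^6 cells/mL) treated with 10 μM compound for 30 min, heated for 3 min over 48°C-58°C, and extracted in PBS with 0.5% NP-40 at 4°C. Values, from duplicates, describe thermal stability against control samples on a log2 fold-change scale.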

Target	log2 fold change
WDR61 (UniProt Q9GZS3)	inactive: -0.028
WDR36 (UniProt Q8NI36)	inactive: -0.027
WDR44 (UniProt Q5JSH3)	inactive: 0.017
WDR13 (UniProt Q9H1Z4)	inactive: 0.004
WASL (UniProt O00401)	inactive: 0.034
WDR74 (UniProt Q6RFH5)	inactive: -0.187
WASHC2A (UniProt Q641Q2)	inactive: -0.229
WARS (UniProt P23381)	inactive: 0.067
WASHC4 (UniProt Q2M389)	inactive: -0.172
WDFY1 (UniProt Q8IWB7)	inactive: -0.101
VPS13C (UniProt Q709C8)	inactive: -0.099
WBP11 (UniProt Q9Y2W2)	inactive: 0.084
WDR45B (UniProt Q5MNZ6)	inactive: -0.012
VPS35 (UniProt Q96QK1)	inactive: -0.013
WDR77 (UniProt Q9BQA1)	inactive: 0.019
WDR5 (UniProt P61964)	inactive: -0.051
WASF2 (UniProt Q9Y6W5)	inactive: -0.038

Quoted from the listing:
In log2 fold change, WDR5 (UniProt P61964) reads inactive: -0.051
In log2 fold change, WDR77 (UniProt Q9BQA1) reads inactive: 0.019

The listing continues:

Target	log2 fold change
VRK3 (UniProt Q8IV63)	inactive: -0.149
WDR89 (UniProt Q96FK6)	inactive: 0.026
WRAP73 (UniProt Q9P2S5)	inactive: 0.086
VDAC3 (UniProt Q9Y277)	inactive: -0.005
WDR6 (UniProt Q9NNW5)	inactive: 0.032
WDR20 isoform 7 (UniProt Q8TBZ3)	inactive: -0.022
WIPF3 (UniProt A6NGB9)	inactive: 0.069
WRAP53 (UniProt Q9BUR4)	inactive: -0.043
WDR45 (UniProt Q9Y484)	inactive: 0.022
VTN (UniProt P04004)	inactive: -0.074
VPS4B (UniProt O75351)	inactive: -0.053
VWA5A (UniProt O00534)	inactive: 0.069
WIZ (UniProt O95785)	inactive: -0.118
VEZF1 (UniProt Q14119)	inactive: -0.032
WDR34 (UniProt Q96EX3)	inactive: -0.01
WDR70 (UniProt Q9NW82)	inactive: 0.068
WIPI1 (UniProt Q5MNZ9)	inactive: -0.059
